From the supplement of paper PMC3334620
The full ranking holds about 33,000 sequences; the median of “E-score (-0.5 to 0.5)” is about -0.0034, and the highest 2% start at about 0.25. The list shows a part of the results.

Target: T1, Yap3 (UniProt P38749)
T1 sequence: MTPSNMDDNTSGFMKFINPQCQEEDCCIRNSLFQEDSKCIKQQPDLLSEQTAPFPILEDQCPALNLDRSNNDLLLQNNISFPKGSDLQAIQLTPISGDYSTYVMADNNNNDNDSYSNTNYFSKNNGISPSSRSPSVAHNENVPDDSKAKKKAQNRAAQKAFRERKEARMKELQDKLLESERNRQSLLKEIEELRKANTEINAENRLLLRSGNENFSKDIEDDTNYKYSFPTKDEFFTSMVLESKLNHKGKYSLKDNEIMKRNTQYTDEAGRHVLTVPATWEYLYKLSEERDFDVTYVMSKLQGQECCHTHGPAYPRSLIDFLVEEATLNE
Test: PBM E-score (8-mer binding enrichment) (E-score (-0.5 to 0.5)); higher = stronger / more preferred TF binding
Details: protein concentration: 100 nM; construct: GST-full length
In short: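 Yeast transcription factors, full-length or as DNA-binding domains, were expressed with a GST tag using PURExpress in vitro transcription/translation. At about 100-200 nM they were applied to universal all-10-mer Agilent arrays, double-stranded by primer extension on fresh or once-stripped slides. Fluorescent anti-GST detected bound protein, and masliner normalised the scans. E-scores for ungapped eight-base words, pooled with reverse complements, came from the Universal PBM Analysis Suite.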

Sequence	PBM E-score
ACTTAATG	0.218
CTGGTCCC	-0.3
CCAACGAG	-0.101
AACTATTA	0.252
GATTAATC	0.117
CTATTGAG	0.112
AGCGTTCC	-0.0165
CATCCTCG	-0.0766
CAGCGATA	-0.0172
GATCCAGA	0.0382
AGATAATC	0.0687
TCCATAAA	0.114
CGATCCTC	-0.153
CCCTATAA	-0.138
ACGTACTC	0.0983
GTCTCCAC	-0.0603
CTCTGGTC	-0.0926
AAGGCAGA	-0.0435
CCACGCCG	-0.124
AATGGTTA	0.0125
ATCGTGCA	0.0632
AGCCATAT	0.0814
ATCGAGAC	-0.145
CCAAGGAG	-0.0467
GCGATCTA	0.0808

Sequence	PBM E-score
CGTGTGAA	0.0802
CTGGACTA	-0.11
CAGGTTCA	-0.156
CAACACGG	-0.041
CTTCGCGC	0.135
CTCCTCGA	-0.115
ACGGACAC	-0.043
CCGCTCAG	-0.101
CCATCGAG	0.00505
TATTAATA	0.301
CCAACTAC	0.0977
AAGACTAT	0.0756
AAGATTCA	0.0769
GACACAGA	0.0192
AAGGGACT	0.0794
CAGCCTAA	-0.12
GACTTAAA	-0.00118
AGTATACA	0.144
ACTGTTTG	0.0933
ATGCGTTG	0.016
ACTCTCTC	-0.025
GGTTTAAC	0.106
GCATCCAC	0.0854
CTGGGAAC	-0.0171
ACTTTGGA	0.0611

Sequence	PBM E-score
ACTTCACA	0.0272
CCCAACGC	0.131
CTTAAGCC	-0.101
GAGTGCGA	-0.0768
CAACATAC	0.0807
ACGGCCCG	-0.121
AATTGTAC	0.226
ACAAGAAT	0.1
CAGAGCAG	0.00746
GACACCTA	-0.0578
GTCTGTTA	0.0785
AATCTACC	0.102
GTTCATAA	0.0365
GCCAGAAA	0.234
CTGTGGTA	0.0204
AACCTTAC	0.192
CGCTGAGA	0.0336
TGCGTACA	0.0216
TACAACAA	0.211
ACTGTCCG	-0.0183
ATATAACA	0.229
CTATGAAA	0.124
ATTGATAG	0.237
ACACTTCT	-0.102
AGGGCGGC	-0.215

Sequence	PBM E-score
CAGCAGTC	-0.0195
CCATATAC	0.212
GAACCTTC	-0.0985
GAAAGCGC	0.0496
GTAAAAGA	0.136
AACCAGTG	-0.166
CGAAGCAG	-0.154
ACAGCTGG	-0.0613
TTCCTCAA	-0.0821
ACCAAAGT	-0.0543
CACTTTAA	0.227
CGTGTACA	0.166
CACTGCAG	0.0818
CCTAGACG	-0.324
CTAATTTA	0.19
ATGGCGTG	0.116
ATACCACG	0.0604
AGATTCGC	-0.0247
CGTCAACG	-0.0805
ACCAGCTC	-0.0393
GATTGTGC	-0.0016
CCTGCCGC	-0.267
TCGGTAAA	0.0807
TAAGTTAA	0.139
ACATCGCG	-0.152

Sequence	PBM E-score
GATCGGCC	-0.138
CACTTTTC	0.149
GTATGCAC	-0.138
ACCTTTTA	-0.0766
CCGCCGCG	-0.00774
ATCCTTTG	0.107
AAAATCCT	-0.0987
ATGCCCGG	-0.157
CCTGGATA	-0.231
GCAGTGTA	0.0324
GAGTACTC	0.163
ACAGGCCG	-0.112
AGGAGCCA	-0.244
AACACTCA	0.114
TGGTGGAA	-0.0612
AGATACTC	0.00888
ACTGACGA	-0.00354
GCTGCCAC	-0.15
AAGGACAT	0.0177
GAAAAATA	0.114
AGTCTCCG	-0.00689
AACCACGA	0.0793
CAGATGCA	-0.216
GAATTGTA	0.0803
CTTGCAAA	0.147

Sequence	PBM E-score
AGAAACAA	0.235
CATAACCC	-0.0918
AGCTGGTG	0.00702
CATTTAGG	-0.188
ATACAGAA	0.195
CATGGCGG	-0.249
CCGTGGCG	-0.127
CCTTAAAG	0.06
CAAGTTCA	-0.00101
GATTATGA	0.134
CTGCAGAA	0.2
CCGTTCGA	0.0189
CGCGGCTC	0.0963
GCTTCGGA	0.0206
GTGTTATA	0.136
CCAAAAAG	0.0995
AATTTTAC	0.258
ACCACGGG	-0.184
ACCGGTTA	0.0946
ACATTAAG	0.16
CCCGCCGA	-0.172
ATAATCGC	0.0527
GTTGGGTA	0.0966
CCCAAGGC	-0.128
GGAGGCTA	-0.259

Sequence	PBM E-score
TATTGACA	0.0463
CCAGGTCC	-0.307
ACGGATAT	0.179
TCCTTGAA	-0.0971
AGGGTTCG	-0.0179
GACCAGCA	0.132
AACACCGT	-0.0219
CTCTCACC	-0.102
CGACATCG	-0.159
GTTATCTA	0.0492
ACAGCCCT	-0.309
AATTAGCT	-0.0397
GCCCCCCC	-0.41
GATATTCA	0.0491
CTGCGGAA	-0.0449
AGCGCGAA	0.146
CACATCCA	0.071
GCATAGGC	-0.0143
AACATAGC	0.104
GTCGCGGA	-0.155
CTATAATA	0.0592
AGGGGTAT	-0.0192
CAAGCATA	0.0597
GGATGTTA	0.055
CTTGCAGA	-0.039

Taken from above (6 entries):
Sequence	PBM E-score
AACACCGT	-0.0219
CTCTCACC	-0.102
CGACATCG	-0.159
GTTATCTA	0.0492
ACAGCCCT	-0.309
AATTAGCT	-0.0397

More entries.

Sequence	PBM E-score
CTCGGAAA	0.0289
ACAACACT	0.248
CCAAATAC	-0.144
ACGCCGTA	-0.0525
AAGGCTTG	0.014
CAACGTAC	0.11
CCCTCTTA	-0.00996
ACGCATGC	0.00764
CGATAGCG	0.0721
ACTAAATA	0.29
CCAGCGGA	-0.264
CACCGGAC	-0.0614
CATCTTCC	0.107
ACCGTCGT	0.0609
ACATTGGC	-0.0552
GTCGGTTA	-0.00978
CGGGCGAA	-0.0828
GGGCGAAC	0.0304
CGCGCTCA	0.0763
ATACGACC	0.0496
AAGCGAAC	-0.0302
AGCGACGG	0.0129
ACGAGCAG	0.00252
CGCCAGGA	-0.0722
AAATCATA	0.18

Sequence	PBM E-score
CTGGGCTA	-0.179
CTATTTCA	0.159
AATGCATT	0.258
ATCCAACG	-0.109
ACACACTA	0.13
GAATCCAA	0.0225
GACGGGAC	-0.318
ACCCAGTG	-0.188
AAGGAAAC	-0.0451
AGGCGAAA	0.13
TAGCGATA	0.0942
CAGGATGG	-0.188
CGGAGAGA	-0.0683
CAGGTTAC	0.0255
AACCATGA	0.215
GGGAGGGA	-0.11
ATTATGCA	0.0948
AAAGCATG	-0.0278
CCGGGAAA	-0.111
GAGTAACA	0.231
CATAAATC	0.183
GATTTGGA	-0.0207
CATTAAAC	0.104
CGATTTAA	0.153
CAGGGATG	-0.228

Sequence	PBM E-score
CTGTAACC	0.0728
AATGGGGC	-0.119
AGTGGACC	-0.155
ATGTCCGA	-0.0604
AAAATATT	0.318
GCTCTCCC	-0.171
ACATGATC	0.115
TTGTGAAA	0.0216
AAGGTTTA	-0.101
CGCCAGCG	-0.177
GACCAACC	-0.181
AAAGCAGA	0.216
CAAGAGGA	-0.0349
ATCAACTA	0.213
ACATACCC	0.0479
GCAAAGGA	0.184
ATATTCCC	0.163
GAATTGCC	0.0463
AAGGGTCA	-0.154
ATCTTCTA	0.0985
TACCTCAA	0.0657
GCATTCCC	-0.0258
CACCCTGC	-0.0024
ACGGAAGC	-0.0665
CGTACGCC	-0.0467

Sequence	PBM E-score
GGGAGCTA	-0.0931
ATAAGGCA	0.0975
CTCGTGGA	-0.0498
GAGCGTGA	-0.158
ATGAGTTG	0.033
ATGCGTGC	0.0537
GAAAGCCA	-0.0548
CTGTCACA	-0.055
AAAAATTA	0.29
AAGGATCA	0.156
AACTTTAA	0.234
TAGCTGGA	-0.272
ATGAAGAC	0.029
GAATGTCC	0.0177
ATCCCGCG	0.0961
CGTTGCTC	-0.0454
GTTGTAGA	-0.0313
TGCAAACA	-0.0326
ACTAGGCG	0.171
CGAATCGA	0.301
ATGTCACC	0.138
TGCGATAA	0.238
CGTACACA	0.123
ACGATACC	0.157
AAGCAGAT	0.0622

Sequence	PBM E-score
CGTGTCTC	-0.115
AAATCGCC	-0.0404
CACAGTTA	0.228
CAATCAAG	-0.0281
ATGTAGAA	0.0426
CGAAAAGA	0.244
AACGTGGC	0.0342
AGTATTAC	0.26
CGATCCGC	-0.0285
ACTCGGGA	0.0571
GCGTGACC	-0.182
GAATATTC	0.194
CGGTAAAA	0.114
GACCTGCC	-0.212
CCTTCCTC	-0.269
CACTAACG	-0.0566
CAATCTAG	0.0544
CAACCGGA	-0.0217
CACAGAGA	0.0569
AAGCCCAA	0.0176
TGAGCTCA	0.0969
CACATGTG	0.0456
CATCAACA	0.255
AGACTGGA	-0.0998
AATGTCCG	0.0248

Sequence	PBM E-score
AGAAATGG	0.0834
AGTTACTG	0.0467
CCCTCAGG	-0.312
ACTGAAAT	0.169
ATGATGTC	0.126
CACAAGGC	-0.0703
CAGGAGTC	-0.0693
CCTGGCTA	-0.115
AGAAAGGG	-0.0731
GGCTAATA	0.193
CAAGCGCG	0.0518
CATGGTCA	0.167
GCGTAGCC	-0.176
CACCTAAA	0.0508
AAGCAGTA	0.0168
ATCGAGAA	0.107
AGGAGGTG	-0.245
ACAAGCTG	-0.00881
CGAGATCC	-0.0606
CACACGCC	0.0625
AGGCGCAT	0.0348
AGTCACGG	0.00648
CTAATTCC	0.0879
GTCTTCTA	0.0359
CGCTTTGC	0.0215

Some of the entries above in another layout:
Sequence | PBM E-score
AAGGCAGA | -0.0435
GAGTGCGA | -0.0768
GTAAAAGA | 0.136
GCATTCCC | -0.0258
CACAGTTA | 0.228

Following part

Sequence	PBM E-score
GACCCGAA	-0.124
CCTAAGGC	-0.38
ACGTCCCG	-0.14
CAAAATCG	0.0686
GATTACCC	0.147
GATAGGCC	-0.148
AAGCCCAC	-0.194
CTTCGCCA	-0.281
ACCGCCAT	0.0211
GATTCGCA	0.165
ACCATGCA	-0.0101
CAATCATG	0.12
AGTTCTGG	0.115
CAATCATC	0.0567
GCGAGACA	-0.108
ACAATGGC	0.0811
GTACTGAA	0.117
CTGGCCGA	-0.262
CTGGCAGC	-0.329
